This note sets out measurements from PMC10565641.

Chains of the proteins cited; added tags and fusions are not shown.
UniProt Q9NQB0: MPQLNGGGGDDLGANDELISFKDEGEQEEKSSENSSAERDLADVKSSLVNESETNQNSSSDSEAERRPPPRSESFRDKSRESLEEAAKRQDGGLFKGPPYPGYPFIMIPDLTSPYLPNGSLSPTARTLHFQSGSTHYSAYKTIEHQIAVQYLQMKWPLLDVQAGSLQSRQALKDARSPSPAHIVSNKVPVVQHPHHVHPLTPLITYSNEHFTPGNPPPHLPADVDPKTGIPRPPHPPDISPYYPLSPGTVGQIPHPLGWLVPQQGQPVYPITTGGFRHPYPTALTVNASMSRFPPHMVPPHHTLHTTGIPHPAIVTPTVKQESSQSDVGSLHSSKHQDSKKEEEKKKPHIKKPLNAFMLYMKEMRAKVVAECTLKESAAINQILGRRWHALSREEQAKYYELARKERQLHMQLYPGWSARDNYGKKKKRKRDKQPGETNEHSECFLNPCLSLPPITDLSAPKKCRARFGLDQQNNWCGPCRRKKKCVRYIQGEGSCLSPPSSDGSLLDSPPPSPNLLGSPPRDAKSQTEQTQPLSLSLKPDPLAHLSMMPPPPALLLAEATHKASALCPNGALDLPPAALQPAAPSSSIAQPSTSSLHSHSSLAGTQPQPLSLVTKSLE
UniProt Q969H0: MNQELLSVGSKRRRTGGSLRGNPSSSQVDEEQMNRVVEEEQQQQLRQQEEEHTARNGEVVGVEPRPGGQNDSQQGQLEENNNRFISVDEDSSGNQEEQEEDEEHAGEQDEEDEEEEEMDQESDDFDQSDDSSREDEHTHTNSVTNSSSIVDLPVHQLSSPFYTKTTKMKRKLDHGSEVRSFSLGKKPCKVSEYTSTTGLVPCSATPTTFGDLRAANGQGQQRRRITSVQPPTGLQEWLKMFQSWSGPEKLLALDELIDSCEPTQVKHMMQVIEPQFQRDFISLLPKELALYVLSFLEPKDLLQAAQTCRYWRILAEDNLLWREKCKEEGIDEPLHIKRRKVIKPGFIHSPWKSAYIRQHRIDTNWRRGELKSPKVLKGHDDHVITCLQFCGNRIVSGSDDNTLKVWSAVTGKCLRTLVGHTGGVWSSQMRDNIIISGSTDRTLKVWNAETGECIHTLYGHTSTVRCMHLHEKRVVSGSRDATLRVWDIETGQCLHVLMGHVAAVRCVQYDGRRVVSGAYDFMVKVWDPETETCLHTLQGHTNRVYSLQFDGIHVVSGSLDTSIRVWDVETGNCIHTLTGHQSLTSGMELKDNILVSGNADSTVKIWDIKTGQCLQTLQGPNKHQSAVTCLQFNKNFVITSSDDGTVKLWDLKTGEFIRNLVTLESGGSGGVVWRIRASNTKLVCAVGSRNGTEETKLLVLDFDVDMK
UniProt Q9UJU2: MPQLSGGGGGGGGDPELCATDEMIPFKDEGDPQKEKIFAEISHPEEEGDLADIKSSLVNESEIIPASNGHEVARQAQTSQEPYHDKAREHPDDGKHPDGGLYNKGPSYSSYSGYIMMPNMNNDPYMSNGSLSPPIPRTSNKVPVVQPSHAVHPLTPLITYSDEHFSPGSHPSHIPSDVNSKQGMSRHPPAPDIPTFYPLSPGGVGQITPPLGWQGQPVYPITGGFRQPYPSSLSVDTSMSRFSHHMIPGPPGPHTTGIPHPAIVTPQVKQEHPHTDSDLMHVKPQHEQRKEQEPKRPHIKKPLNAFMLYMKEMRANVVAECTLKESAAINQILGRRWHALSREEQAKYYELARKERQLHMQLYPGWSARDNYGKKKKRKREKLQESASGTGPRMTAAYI
UniProt P35222: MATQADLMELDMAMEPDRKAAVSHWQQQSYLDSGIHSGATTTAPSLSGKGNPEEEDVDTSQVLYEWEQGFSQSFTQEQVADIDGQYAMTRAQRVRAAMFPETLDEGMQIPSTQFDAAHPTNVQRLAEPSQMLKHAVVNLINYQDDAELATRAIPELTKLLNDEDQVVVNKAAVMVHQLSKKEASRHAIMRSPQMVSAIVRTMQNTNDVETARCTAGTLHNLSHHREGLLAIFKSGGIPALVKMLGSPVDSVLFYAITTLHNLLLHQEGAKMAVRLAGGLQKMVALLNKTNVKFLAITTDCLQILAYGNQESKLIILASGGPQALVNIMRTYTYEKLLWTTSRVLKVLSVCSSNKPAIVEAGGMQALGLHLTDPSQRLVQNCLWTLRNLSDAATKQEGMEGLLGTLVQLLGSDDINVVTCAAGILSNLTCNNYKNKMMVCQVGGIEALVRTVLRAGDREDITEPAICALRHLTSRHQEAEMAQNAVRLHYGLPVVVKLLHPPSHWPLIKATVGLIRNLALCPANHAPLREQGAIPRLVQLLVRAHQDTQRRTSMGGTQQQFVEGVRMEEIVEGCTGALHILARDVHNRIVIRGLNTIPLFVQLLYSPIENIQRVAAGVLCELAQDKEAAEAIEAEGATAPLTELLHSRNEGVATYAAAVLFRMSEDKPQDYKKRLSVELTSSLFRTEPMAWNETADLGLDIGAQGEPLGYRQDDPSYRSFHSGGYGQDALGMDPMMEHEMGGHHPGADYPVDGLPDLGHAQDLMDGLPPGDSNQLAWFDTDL

These are yes or no findings as the source states them, for the method shown. Binding seen in cells or lysates may run through a third protein. Some binding calls cover weakened binding; strength is not graded here.

Holding throughout (assay): co-IP; HEK293T cells co-transfected with tagged constructs; benzonase lysis buffer, KCl to 450 mM then diluted to 150 mM; anti-FLAG M2 magnetic beads 2 h; five washes with 100 mM KCl at 4°C; immunoblot for tagged or indicated proteins
In test [1] the target is FLAG-V5-tagged TCF7L2 (human) (UniProt Q9NQB0).
Test [2] has as its target FLAG-V5-tagged FBXW7α, wild type (human) (UniProt Q969H0).
In test [3] the target is FLAG-V5-tagged full length LEF1 (human) (UniProt Q9UJU2).

Consider “Myc-tagged FBXW7α (from UniProt Q969H0 1-707)”, for which the binding result in test [1] is given as “binds”. In the case of “Myc-tagged TCF7L2 (from UniProt Q9NQB0 1-619)”, in test [2], the binding result is given as “binds”. β-catenin (from UniProt P35222 1-781): the binding entry in test [3] was “binds”.
